This note sets out measurements from the supplement of paper PMC10849652.

Chains of the proteins cited; added tags and fusions are not shown. Lines headed by an entry give the natural chain unless they say otherwise; changes in a name come on top.
UniProt O60869: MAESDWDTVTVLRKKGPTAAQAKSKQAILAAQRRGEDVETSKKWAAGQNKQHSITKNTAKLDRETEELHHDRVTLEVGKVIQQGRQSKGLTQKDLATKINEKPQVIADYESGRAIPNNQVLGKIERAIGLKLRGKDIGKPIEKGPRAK
UniProt Q6P3W2: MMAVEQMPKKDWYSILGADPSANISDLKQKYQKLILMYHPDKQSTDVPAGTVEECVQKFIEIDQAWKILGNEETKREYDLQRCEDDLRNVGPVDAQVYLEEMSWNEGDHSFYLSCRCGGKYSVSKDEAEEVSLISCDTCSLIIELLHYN
UniProt Q96EY1: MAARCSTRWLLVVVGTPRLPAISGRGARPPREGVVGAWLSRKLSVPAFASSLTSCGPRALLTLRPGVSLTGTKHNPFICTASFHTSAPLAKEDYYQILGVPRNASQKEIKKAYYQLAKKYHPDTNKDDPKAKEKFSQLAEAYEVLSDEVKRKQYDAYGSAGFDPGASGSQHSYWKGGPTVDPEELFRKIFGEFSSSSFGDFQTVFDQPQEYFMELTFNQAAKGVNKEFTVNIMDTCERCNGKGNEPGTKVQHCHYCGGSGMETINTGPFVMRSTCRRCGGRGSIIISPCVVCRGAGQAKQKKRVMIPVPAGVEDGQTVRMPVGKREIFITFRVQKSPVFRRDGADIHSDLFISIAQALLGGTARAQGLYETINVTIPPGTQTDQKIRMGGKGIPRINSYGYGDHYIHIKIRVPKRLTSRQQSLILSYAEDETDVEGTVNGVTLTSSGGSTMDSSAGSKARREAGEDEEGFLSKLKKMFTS
UniProt O00716: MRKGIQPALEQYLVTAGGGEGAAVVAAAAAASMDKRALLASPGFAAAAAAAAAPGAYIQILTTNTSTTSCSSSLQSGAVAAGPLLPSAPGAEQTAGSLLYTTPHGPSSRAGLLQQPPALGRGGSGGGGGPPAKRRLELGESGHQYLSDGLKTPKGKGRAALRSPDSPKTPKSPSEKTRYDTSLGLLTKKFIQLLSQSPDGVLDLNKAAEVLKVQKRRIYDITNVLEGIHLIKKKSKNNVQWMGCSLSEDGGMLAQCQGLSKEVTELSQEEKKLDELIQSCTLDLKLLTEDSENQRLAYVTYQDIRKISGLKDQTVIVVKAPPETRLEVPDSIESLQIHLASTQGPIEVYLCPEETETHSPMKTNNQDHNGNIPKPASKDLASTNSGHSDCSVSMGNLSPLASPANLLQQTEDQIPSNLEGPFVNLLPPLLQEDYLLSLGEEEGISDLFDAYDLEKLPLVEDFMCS
UniProt P63172, whole entry, looked up: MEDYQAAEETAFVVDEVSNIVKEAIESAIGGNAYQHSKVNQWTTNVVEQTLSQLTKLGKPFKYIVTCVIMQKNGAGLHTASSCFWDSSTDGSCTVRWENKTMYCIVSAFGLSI
UniProt O75061: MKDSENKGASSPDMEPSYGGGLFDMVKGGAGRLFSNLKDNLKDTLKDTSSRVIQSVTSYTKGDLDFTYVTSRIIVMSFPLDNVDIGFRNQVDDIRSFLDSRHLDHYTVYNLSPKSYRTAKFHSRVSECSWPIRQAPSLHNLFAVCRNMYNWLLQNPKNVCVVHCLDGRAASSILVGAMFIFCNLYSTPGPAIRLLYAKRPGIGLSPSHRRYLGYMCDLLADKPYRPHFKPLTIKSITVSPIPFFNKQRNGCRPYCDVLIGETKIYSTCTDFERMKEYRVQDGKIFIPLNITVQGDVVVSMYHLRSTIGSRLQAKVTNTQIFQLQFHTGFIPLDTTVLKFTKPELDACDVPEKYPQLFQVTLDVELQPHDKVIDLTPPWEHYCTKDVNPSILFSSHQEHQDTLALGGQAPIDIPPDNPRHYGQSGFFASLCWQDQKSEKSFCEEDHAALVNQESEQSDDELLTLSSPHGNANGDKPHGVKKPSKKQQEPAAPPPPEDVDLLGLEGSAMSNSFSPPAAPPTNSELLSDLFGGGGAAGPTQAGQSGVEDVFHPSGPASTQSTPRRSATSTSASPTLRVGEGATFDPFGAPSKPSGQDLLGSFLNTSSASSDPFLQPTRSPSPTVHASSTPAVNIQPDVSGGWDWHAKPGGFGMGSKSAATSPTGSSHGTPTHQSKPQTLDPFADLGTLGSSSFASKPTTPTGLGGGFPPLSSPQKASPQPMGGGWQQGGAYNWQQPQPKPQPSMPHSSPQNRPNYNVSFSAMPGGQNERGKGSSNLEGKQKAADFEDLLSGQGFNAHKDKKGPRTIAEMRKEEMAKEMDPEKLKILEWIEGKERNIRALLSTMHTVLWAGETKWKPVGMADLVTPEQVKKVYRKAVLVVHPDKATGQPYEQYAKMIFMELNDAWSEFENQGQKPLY
UniProt P55039: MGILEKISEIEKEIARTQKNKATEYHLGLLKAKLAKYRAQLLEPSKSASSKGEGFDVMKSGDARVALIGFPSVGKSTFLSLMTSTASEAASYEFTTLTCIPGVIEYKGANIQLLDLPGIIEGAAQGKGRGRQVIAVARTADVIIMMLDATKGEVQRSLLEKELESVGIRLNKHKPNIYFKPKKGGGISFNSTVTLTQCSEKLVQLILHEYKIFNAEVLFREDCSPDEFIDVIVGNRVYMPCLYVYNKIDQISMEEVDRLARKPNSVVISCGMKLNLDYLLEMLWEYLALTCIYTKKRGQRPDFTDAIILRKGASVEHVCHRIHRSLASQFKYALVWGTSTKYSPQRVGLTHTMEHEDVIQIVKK
UniProt Q8TEA8: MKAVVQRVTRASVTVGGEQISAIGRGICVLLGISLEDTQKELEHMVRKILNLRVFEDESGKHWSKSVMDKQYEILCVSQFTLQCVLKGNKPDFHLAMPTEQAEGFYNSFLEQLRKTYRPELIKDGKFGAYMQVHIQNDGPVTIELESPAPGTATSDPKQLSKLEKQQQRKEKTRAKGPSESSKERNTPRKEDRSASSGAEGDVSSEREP
UniProt Q9UKB3: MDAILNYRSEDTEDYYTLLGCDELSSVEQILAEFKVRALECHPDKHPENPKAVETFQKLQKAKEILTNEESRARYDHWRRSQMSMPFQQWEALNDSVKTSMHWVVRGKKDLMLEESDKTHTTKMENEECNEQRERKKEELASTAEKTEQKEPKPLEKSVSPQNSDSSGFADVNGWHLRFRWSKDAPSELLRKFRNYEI
UniProt Q8TBM8: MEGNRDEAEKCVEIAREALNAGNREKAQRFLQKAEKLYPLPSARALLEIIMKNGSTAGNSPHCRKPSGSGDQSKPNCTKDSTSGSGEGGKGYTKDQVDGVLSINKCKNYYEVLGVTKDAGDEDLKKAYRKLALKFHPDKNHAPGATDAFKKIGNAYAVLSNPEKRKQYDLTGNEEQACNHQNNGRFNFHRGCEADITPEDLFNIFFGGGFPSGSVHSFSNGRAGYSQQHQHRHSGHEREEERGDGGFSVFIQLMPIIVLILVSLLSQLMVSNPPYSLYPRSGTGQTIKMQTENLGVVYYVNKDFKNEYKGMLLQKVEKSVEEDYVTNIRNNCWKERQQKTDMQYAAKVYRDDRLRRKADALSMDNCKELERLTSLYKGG
UniProt Q9NVM6: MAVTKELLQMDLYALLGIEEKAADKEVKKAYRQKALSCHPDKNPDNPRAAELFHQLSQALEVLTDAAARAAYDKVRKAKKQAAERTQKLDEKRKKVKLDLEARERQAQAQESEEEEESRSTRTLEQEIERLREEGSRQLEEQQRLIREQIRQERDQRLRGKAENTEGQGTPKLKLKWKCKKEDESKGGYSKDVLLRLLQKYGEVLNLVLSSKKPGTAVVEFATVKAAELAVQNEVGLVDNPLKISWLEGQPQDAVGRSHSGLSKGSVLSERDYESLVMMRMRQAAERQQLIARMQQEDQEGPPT
UniProt Q9UBS4: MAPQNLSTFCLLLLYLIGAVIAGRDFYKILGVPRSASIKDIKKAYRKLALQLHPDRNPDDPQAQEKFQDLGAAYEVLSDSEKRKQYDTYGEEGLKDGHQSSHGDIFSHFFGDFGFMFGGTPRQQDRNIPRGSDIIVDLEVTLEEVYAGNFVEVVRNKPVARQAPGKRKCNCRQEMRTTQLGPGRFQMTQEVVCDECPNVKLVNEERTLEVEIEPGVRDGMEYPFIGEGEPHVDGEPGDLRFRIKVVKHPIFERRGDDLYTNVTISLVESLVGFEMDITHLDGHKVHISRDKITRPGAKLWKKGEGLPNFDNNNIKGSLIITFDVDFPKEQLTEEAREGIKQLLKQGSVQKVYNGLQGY
UniProt Q14919: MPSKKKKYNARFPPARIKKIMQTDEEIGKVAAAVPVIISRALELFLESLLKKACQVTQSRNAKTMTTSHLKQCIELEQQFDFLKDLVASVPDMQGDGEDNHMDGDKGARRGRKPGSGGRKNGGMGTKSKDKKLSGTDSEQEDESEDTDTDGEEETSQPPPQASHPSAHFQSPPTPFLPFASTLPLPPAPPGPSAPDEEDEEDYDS
UniProt Q96DA6: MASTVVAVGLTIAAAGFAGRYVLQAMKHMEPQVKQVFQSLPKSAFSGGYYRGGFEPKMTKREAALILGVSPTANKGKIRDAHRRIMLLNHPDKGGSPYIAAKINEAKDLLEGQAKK
UniProt Q6P2E9: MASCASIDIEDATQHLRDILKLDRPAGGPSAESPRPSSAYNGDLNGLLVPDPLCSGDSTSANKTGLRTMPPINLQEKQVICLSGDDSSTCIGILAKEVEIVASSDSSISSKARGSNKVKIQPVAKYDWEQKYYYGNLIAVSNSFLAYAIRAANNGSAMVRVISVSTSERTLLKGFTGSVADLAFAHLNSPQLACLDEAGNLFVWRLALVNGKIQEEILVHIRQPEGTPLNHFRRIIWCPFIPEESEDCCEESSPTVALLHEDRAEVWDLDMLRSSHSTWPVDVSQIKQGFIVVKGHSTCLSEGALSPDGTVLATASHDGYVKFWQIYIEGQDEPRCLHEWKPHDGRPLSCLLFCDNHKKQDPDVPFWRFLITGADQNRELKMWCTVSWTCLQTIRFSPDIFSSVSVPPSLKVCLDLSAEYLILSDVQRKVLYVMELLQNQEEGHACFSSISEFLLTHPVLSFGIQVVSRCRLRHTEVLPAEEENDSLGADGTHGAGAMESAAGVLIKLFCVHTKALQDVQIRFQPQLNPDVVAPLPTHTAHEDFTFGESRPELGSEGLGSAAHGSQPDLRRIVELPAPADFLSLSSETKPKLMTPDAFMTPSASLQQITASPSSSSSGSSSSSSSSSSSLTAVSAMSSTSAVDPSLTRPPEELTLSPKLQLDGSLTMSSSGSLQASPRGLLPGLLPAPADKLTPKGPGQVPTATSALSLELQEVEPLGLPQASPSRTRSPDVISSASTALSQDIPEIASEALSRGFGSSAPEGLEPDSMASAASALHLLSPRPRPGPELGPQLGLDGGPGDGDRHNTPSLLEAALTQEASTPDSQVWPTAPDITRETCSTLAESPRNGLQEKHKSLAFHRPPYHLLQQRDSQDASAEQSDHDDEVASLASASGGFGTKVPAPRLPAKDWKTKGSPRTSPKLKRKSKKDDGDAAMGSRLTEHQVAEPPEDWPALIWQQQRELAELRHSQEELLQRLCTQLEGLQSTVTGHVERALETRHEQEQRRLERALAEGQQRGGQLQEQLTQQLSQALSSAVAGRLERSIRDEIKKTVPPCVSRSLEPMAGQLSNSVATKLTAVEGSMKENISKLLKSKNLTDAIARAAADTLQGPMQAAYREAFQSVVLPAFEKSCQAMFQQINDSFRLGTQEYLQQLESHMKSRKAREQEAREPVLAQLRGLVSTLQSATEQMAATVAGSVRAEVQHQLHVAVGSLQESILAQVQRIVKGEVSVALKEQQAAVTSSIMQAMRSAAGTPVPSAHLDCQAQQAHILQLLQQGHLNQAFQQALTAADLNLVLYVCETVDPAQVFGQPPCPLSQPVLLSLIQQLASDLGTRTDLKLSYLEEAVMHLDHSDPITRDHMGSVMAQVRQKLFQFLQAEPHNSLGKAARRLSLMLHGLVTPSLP
UniProt O00559: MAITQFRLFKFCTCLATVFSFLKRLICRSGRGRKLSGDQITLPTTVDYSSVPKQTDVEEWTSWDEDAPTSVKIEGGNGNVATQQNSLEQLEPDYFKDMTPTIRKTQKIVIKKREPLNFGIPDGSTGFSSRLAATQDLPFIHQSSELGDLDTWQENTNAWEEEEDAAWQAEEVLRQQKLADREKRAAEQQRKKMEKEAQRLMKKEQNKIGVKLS
UniProt Q7L591: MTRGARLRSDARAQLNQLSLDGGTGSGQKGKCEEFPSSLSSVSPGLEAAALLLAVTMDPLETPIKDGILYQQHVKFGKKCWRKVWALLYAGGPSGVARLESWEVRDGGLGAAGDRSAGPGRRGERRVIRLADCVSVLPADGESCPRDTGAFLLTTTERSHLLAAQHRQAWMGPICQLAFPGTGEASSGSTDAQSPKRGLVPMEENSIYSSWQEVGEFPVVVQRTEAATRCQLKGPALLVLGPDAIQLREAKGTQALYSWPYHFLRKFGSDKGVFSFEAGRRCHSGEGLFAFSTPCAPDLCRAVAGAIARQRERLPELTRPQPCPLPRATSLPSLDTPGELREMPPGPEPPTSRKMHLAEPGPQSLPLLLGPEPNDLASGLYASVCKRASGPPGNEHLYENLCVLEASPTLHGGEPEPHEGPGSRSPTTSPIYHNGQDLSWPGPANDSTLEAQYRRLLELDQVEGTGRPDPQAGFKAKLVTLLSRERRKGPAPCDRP

This is one part of the list.

Compound in the test: CC1=C2C(=CC=C1)N=C(N(C2=O)C3=CC=CC=C3C)CN4C=NC5=C(N=CN=C54)N
The test can be described thus: log2 fold change, soluble protein after heating vs DMSO (PISA); higher = thermal stabilisation; K562 cells, 10 uM, 30 min; active = over 0.2 and 3.5 SD of the protein, either way, in both replicates (recomputed). The gist of the method:
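K562 cells at 2×10^6 cells/mL were treated with 10 μM compound for 30 min. Aliquots were heated for 3 min across 48°C-58°C, pooled, and extracted in PBS with 0.5% NP-40 at 4°C; soluble protein was the supernatant after 21,000xg for 90 min. Soluble protein was quantified by TMTpro 16plex LC-MS/MS with channel sums equalised, and reported as log2 fold change in thermal stability against DMSO controls, with values from duplicates.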
For DTYMK (UniProt P23919), the log2 fold change was inactive: -0.02.
With EDF1 (UniProt O60869) the figure was inactive: 0.013; with DNAJC24 (UniProt Q6P3W2), inactive: 0.025.
With DPF2 (UniProt Q92785) the figure was inactive: 0.004; with DPH6 (UniProt Q7L8W6), inactive: 0.126; with DNM1L isoform 2 (UniProt O00429), inactive: 0.012.
Consider DNAJA3 (UniProt Q96EY1), for which the log2 fold change is inactive: 0.039.
Next, DSC2 (UniProt Q02487): inactive: 0.068; DNAJB12 (UniProt Q9NXW2): inactive: 0.081.
Regarding DOCK11 (UniProt Q5JSL3), the log2 fold change is inactive: 0.089.
Next, DTWD2 (UniProt Q8NBA8): inactive: 0.064; E2F3 (UniProt O00716): inactive: 0.192.
With DYNLT1 (UniProt P63172) the figure was inactive: 0.087; with DNAJC6 isoform 2 (UniProt O75061), inactive: 0.062.
With DRG2 (UniProt P55039) the figure was inactive: 0.102; with DOCK9 isoform 4 (UniProt Q9BZ29), inactive: 0.153.
Take DTD1 (UniProt Q8TEA8): the log2 fold change is inactive: 0.046.
Next, DNAJC12 (UniProt Q9UKB3): inactive: 0.039; DNAJB14 (UniProt Q8TBM8): inactive: -0.001.
With DNAJC17 (UniProt Q9NVM6) the figure was inactive: 0.066.
DNAJB11 (UniProt Q9UBS4): the log2 fold change was inactive: -0.02.
Next, DRAP1 isoform 2 (UniProt Q14919): inactive: -0.007; DNAJC19 (UniProt Q96DA6): inactive: 0.05.
In the case of DNLZ (UniProt Q5SXM8), the log2 fold change was inactive: -0.014.
For EDC4 (UniProt Q6P2E9), the log2 fold change was inactive: 0.075.
Next, EEA1 (UniProt Q15075): inactive: 0.011.
Next, DNPH1 (UniProt O43598): inactive: -0.001; DPH2 (UniProt Q9BQC3): inactive: 0.021; EBAG9 isoform 2 (UniProt O00559): inactive: 0.058.
Next, DYNC1LI1 (UniProt Q9Y6G9): inactive: -0.001; DTWD1 (UniProt Q8N5C7): inactive: 0.152; DPY19L1, A0A1B0GW05: inactive: -0.156.
With E4F1 (UniProt Q66K89), the log2 fold change is inactive: -0.217.
Next, DOK3 (UniProt Q7L591): inactive: 0.109.
Next, DYM (UniProt Q7RTS9): inactive: 0.143; DPY19L4 (UniProt Q7Z388): inactive: 0.092; DSTN (UniProt P60981): inactive: 0.055.
Next, DPYSL2 (UniProt Q16555): inactive: 0.093; EDC3 (UniProt Q96F86): inactive: 0.019.
